Test results as given in PubChem BioAssay AID504467 (National Center for Advancing Translational Sciences (NCATS), 2011).
Screen size: about 330,000 compounds; about 7,700 (2.3%) were called active. Inconclusive results, whose numbers are uncertain, are shown with a selection of clear calls. The call rests on the fitted dose curve; in most records, active means well fitted inhibition curve with a large enough effect; inconclusive means small, poorly fitted or top-dose-only effect, or effect the other way; inactive means flat fitted curve, though single readings scatter. Where the call is inconclusive, the potency comes from a doubtful curve fit.

assay: qHTS screen for small molecules that inhibit ELG1-dependent DNA repair in human embryonic kidney (HEK293T) cells expressing luciferase-tagged ELG1; settings: HEK293T ELG1-luciferase reporter, luminescence, 16 h, DNA damage induced by 5-fluorouridine; activity change, negative = inhibition: at 46.1 µM (top of the series); further: nearly all actives have a fitted effect of over 55% in size
Outline: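 Cells (2,000 per well) received 5-fluorouridine plus test compound or DMSO and were incubated 16 hr at 37 °C, 5% CO2. Luciferase activity was read by luminescence 30 min after ONE-Glo addition; signal suppression marked inhibition of damage-induced ELG1 function.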
On the % scale 0 is the no-effect control and ±100 the full control effect; potency means the concentration at half of the fitted maximal effect.

Structure (SMILES)	Potency	activity change, negative = inhibition
Cc1ccc2nc(/C(C#N)=C\c3cc(C)n(-c4cccc([N+](=O)[O-])c4)c3C)[nH]c2c1	inconclusive: 14.6 µM [inhibitor, partial curve]	–
CCOC(=O)c1cc(-c2cccs2)nc2c1c(C)nn2-c1ccccn1	inconclusive: 18.3 µM [inhibitor, single point]	–
O=C1OCC(CO)(CO)N=C1NNc1ccc(Cl)c(Cl)c1	inconclusive: 2.59 µM [inhibitor, partial curve, poor fit]	–
CCOC(=O)c1cc2c(ccn2-c2ccc(F)cc2)n1CC(=O)N(CC)CC	inconclusive: 16.4 µM [inhibitor, partial curve]	–
COc1cccc(CNC(=O)c2ccc(N3CCOCC3)c([N+](=O)[O-])c2)c1	–	inactive: 0.201%
Cc1ccc(C(=O)C(C)OC(=O)CCS(=O)(=O)c2ccc(C)cc2)cc1 (stereo not given)	inconclusive: 11.6 µM [inhibitor, partial curve]	–
CCN1CCN(S(=O)(=O)c2ccc(C(=O)Nc3sc4c(c3C(N)=O)CCN(CC)C4)cc2)CC1	–	inactive: -12.5%
CSCCC(=O)Nc1cc(S(=O)(=O)N2CCOCC2)ccc1N1CCN(C)CC1	–	inactive: 6.7%
c1ccc(-c2n[nH]c(-c3ccccn3)n2)cc1	inconclusive: 5.8 µM [activator, partial curve]	–
CCOCC(=O)Nc1cccc(C(=O)OCC)c1	inconclusive: 25.9 µM [activator, single point]	–
Cc1ccc(S(=O)(=O)Nc2cccc(N(C)S(C)(=O)=O)c2)cc1[N+](=O)[O-]	inconclusive: 32.6 µM [inhibitor, single point]	–
Nc1ccccc1-c1nnc(-c2ccc(-c3ccccc3)cc2)o1	inconclusive: 9.2 µM [activator, partial curve]	–
Cc1ccc(C23CC4CC(CC(C(=O)NN)(C4)C2)C3)cc1	–	inactive: -6.38%
COc1ccc(CCC(=O)Nc2ccc(S(=O)(=O)Nc3nccc(C)n3)cc2)cc1	–	inactive: 9.99%
CC(=O)CSc1ncnc2nc[nH]c12	–	inactive: -7.05%
CCOc1ccc(C(C)=O)cc1COc1ccc(-n2cnnn2)cc1	inconclusive: 29.1 µM [inhibitor, single point]	–
O=C(N/N=C/c1ccc(-n2ccnc2)cc1)c1cccs1	inconclusive: 18.3 µM [activator, partial curve]	–
COc1ccccc1-c1cnnc(N/N=C/c2ccc(-c3cccc(Br)c3)o2)n1	active: 8.2 µM	–
CN(Cc1ccccn1)Cc1nc(COc2ccccc2)no1	inconclusive: 25.9 µM [activator, partial curve, poor fit]	–
CCOC(=O)c1ccc(NC(=O)Cn2nnc(-c3ccccc3F)n2)cc1	–	inactive: -2.31%
CSc1ccc(/C=N/NC(=O)c2ccccc2Cl)cc1	inconclusive: 11.6 µM [activator, partial curve, poor fit]	–
CC1(C)CC(=O)C2=C(C1)Nc1ncnn1C2c1cccs1 (stereo not given)	–	inactive: 11.6%
COC(=O)c1c(NC(=O)c2nc3ccccc3s2)sc2c1CCN(C(C)=O)C2	inconclusive: 29.1 µM [inhibitor, single point]	–

Random excerpt: 2 records from the list
Structure (SMILES)	Potency	activity change, negative = inhibition
c1ccc(-c2n[nH]c(-c3ccccn3)n2)cc1	inconclusive: 5.8 µM [activator, partial curve]	–
CC1(C)CC(=O)C2=C(C1)Nc1ncnn1C2c1cccs1 (stereo not given)	–	inactive: 11.6%

(continued)

Structure (SMILES)	Potency	activity change, negative = inhibition
COc1ccc(S(=O)Cc2ccc(C(=O)N3CCN(C(=O)c4ccco4)CC3)o2)cc1 (stereo not given)	–	inactive: -0.689%
CCOC(=O)C(=CNc1cc(OC)ccc1-n1cccc1)C(=O)OCC	inconclusive: 23.1 µM [inhibitor, single point]	–
Cc1nc2nc(-c3ccco3)[nH]n2c(=O)c1Cc1ccccc1	–	inactive: 12.8%
CC(C)(C)NC(=O)COC(=O)c1ccc(F)cc1Cl	inconclusive: 6.51 µM [activator, single point]	–
COC(=O)COc1ccc(S(=O)(=O)N2CCOCC2)cc1C	inconclusive: 20.6 µM [activator, single point]	–
CSc1nc(O)cc(=O)n1-c1ccc(F)cc1	–	inactive: 6.07%
Cc1ccc(NC(=O)Cn2cnc([N+](=O)[O-])c2)cc1C	inconclusive: 29.1 µM [activator, single point]	–
Cc1ccccc1NCC(=O)N/N=C/c1c(C)c(C(=O)c2ccc(Cl)cc2)n2ccccc12	inconclusive: 6.51 µM [inhibitor, full curve, poor fit]	–
CCCCCCCc1c(O)nc(SCCN(C)C)[nH]c1=O	inconclusive: 20.6 µM [activator, single point]	–
COc1ccc(CCNC(=O)c2ccccc2NC(=O)c2ccco2)cc1OC	active: 18.4 µM	–
COCCN(Cc1ccccc1)C(=O)c1cc(-c2ccc(OC)c(OC)c2)nc2ccccc12	active: 11.6 µM	–
COc1ccccc1/C=C1\C(=O)Nc2ccccc21	inconclusive: 13 µM [inhibitor, partial curve]	–
C=CCOc1ccc(/C=C/C(=O)OCC(=O)N(C)CC(=O)Nc2ccc(F)cc2)cc1	inconclusive: 29.1 µM [activator, single point]	–
Cc1c(C(=O)NC2CCCCC2)oc2ccc(F)cc12	inconclusive: 14.6 µM [activator, partial curve]	–
COc1cc(OC)c(-c2nn3c(-c4ccco4)nnc3s2)cc1OC	inconclusive: 20.6 µM [inhibitor, partial curve]	–
CCn1c2ccccc2c2cc(NC(=O)COC(=O)c3cc(OC)c(OC)cc3OC)ccc21	active: 9.2 µM	–
Cc1c(NC(=O)C(C)OC(=O)CCc2c[nH]c3ccccc23)c(=O)n(-c2ccccc2)n1C (stereo not given)	–	inactive: -0.0664%
Fc1ccc(Nc2nc(-c3ccncc3)cs2)cc1	inconclusive: 2.91 µM [activator, partial curve]	–
COc1ccc(Nc2nc(-c3cccs3)nc3ccccc23)c(OC)c1	inconclusive: 29.1 µM [inhibitor, single point]	–
Cc1ccccc1-c1cc(C(=O)NCC2CC2)n(CC2CC(c3cccnc3)=NO2)n1 (stereo not given)	inconclusive: 23.1 µM [inhibitor, single point]	–
Cc1cc(C)c(C(=O)NC2CCCc3c2cnn3-c2ccc(C)c(C)c2)c(=O)[nH]1 (stereo not given)	inconclusive: 6.51 µM [inhibitor, partial curve, poor fit]	–
COc1cc(O)oc1C=Nc1ccc(Cl)cc1	–	inactive: -7.53%
